Structures can show the parent of a compound that is named as a salt. Among all 5,300 compounds or so, about 130 (2.5%) showed an effect of 50% or more. The list shows a part of the results.
The molecules below were run on M. mycetomatis strain mm55. Conditions: primary screen, metabolic activity vs growth control; 96 h, 2 µM; inhibitor.

Row | SMILES | % viability [%]
1 | O=c1ccc2ccc(O)c(O)c2o1 [ONC0004734, daphnetin] | 134.1
2 | CCOc1ccc(-n2c(C(C)N(Cc3cccnc3)C(=O)Cc3ccc(F)c(C(F)(F)F)c3)nc3ncccc3c2=O)cc1 (stereo not drawn) [ONC0002523, nbi74330] | 76.52
3 | N#CC(c1ccc(Cl)cc1)c1c(Cl)cc(-n2ncc(=O)[nH]c2=O)cc1Cl (stereo not drawn) [ONC0004038, diclazuril] | 72.76
4 | OCc1cc([C@@H](O)CNCCCCCCOCCOCc2c(Cl)cccc2Cl)ccc1O [ONC0001946, vilanterol trifenatate] | 94.19
5 | C(=C\c1ccccc1)/CN1CCN(CCOC(c2ccccc2)c2ccccc2)CC1 [ONC0001630, gbr12783] | 65.14
6 | CC(C)Oc1ccc(Cc2ccc(NC3=NCCN3)cc2)cc1 [ONC0002485, ro1138452] | 58.53
7 | COc1cc(OC)c(C(=O)CCCN2CCCC2)c(OC)c1 [ONC0003999, buflomedil hydrochloride] | 83.06
8 | NC(=O)CN1Cc2ccccc2OC1=O [ONC0003769, caroxazone] | 98.29
9 | CCC(=O)c1ccc(O)cc1 [ONC0005323, paroxypropione] | 97.45
10 | CC1Nc2ccc(Cl)cc2S(=O)(=O)N1 (stereo not drawn) [ONC0000764, idra21] | 80.26
11 | Oc1ccc(Cl)c2cccnc12 [ONC0000285, cloxyquin] | 96.09
12 | Nc1c(Br)cc(Br)cc1CN[C@H]1CC[C@H](O)CC1 [ONC0004141, ambroxol hydrochloride] | 63.05
13 | O=C(Nc1ccc(O)cc1)c1ccccc1O [ONC0002775, osalmid] | 94.91
14 | C=CC(=O)Nc1cccc(Nc2nc(Nc3ccc(N4CCN(C(C)=O)CC4)cc3OC)ncc2C(F)(F)F)c1 [ONC0004367, rociletinib co1686 avl301] | 125.3
15 | CS(=O)(=O)CCNCc1ccc(-c2ccc3ncnc(Nc4ccc(OCc5cccc(F)c5)c(Cl)c4)c3c2)o1 [ONC0004610, lapatinib gw572016 ditosylate] | 72
16 | C[C@@H]([C@H](C)O)[C@H](N)C(=O)O [ONC0005485, id1101] | 81.96
17 | Nc1ccc(-c2nc3ccc(-c4nc5ccc(N)cc5[nH]4)cc3[nH]2)cc1 [ONC0001329, ro907501] | 105.6
18 | C[N+](C)(C)CCOP(=O)(O)OP(=O)(O)OC[C@H]1O[C@@H](n2ccc(N)nc2=O)[C@H](O)[C@@H]1O [ONC0005601, citicoline] | 130.9

Random excerpt: 2 entries already listed, in no set order.
Row | SMILES | % viability [%]
8 | NC(=O)CN1Cc2ccccc2OC1=O [ONC0003769, caroxazone] | 98.29
17 | Nc1ccc(-c2nc3ccc(-c4nc5ccc(N)cc5[nH]4)cc3[nH]2)cc1 [ONC0001329, ro907501] | 105.6

— article PMC12670160, “A drug-repurposing screen of FDA- and EMA-approved drugs identifies two NF-κB inhibitors active against eumycetoma” (Journal of Antimicrobial Chemotherapy, 2025)
